Among all 300,000 compounds or so, about 5,400 (1.8%) were called active. This list was built around the results that the source calls inconclusive (neither active nor inactive); the mix of calls is not that of the screen. The call rests on the fitted dose curve; tested in HEK293 cells. A potency beside an inconclusive call is a rough fit, not a confirmed value.
Assay: qHTS for inhibitors of binding or entry into cells for Marburg Virus
Settings: Marburg virus pseudotyped entry inhibition, cell reporter; series mostly up to 37.8 µM
With O=C(COc1ccc(F)cc1Cl)Nc1ccccc1C(=O)N1CCCCC1 the Potency was “inactive”. In the case of COc1cc(C=O)ccc1OCCOCCOc1ccccc1Cl, the Potency is reported as “inactive”. With Cc1cc([N+](=O)[O-])nn1CC(=O)Nc1ccc(Cl)cn1 the Potency was “inactive”. For CCCCOC(=O)c1ccc(NS(=O)(=O)c2c(C)nc3scc(C)n3c2=O)cc1, the Potency was inconclusive: 10 µM [inhibitor, partial curve, poor fit]. In the case of Cc1ccccc1OCC(O)CNC1CCCC1 (stereo not drawn), the Potency is reported as “inactive”. For COc1ccc(C(=O)Nc2ccc3ccccc3c2)cc1OC, the Potency was “inactive”. For CCCN(C(=O)Cn1ncc2c(=O)oc3ccccc3c21)c1cccc(C)c1, the Potency was inconclusive: 3.66 µM [inhibitor, partial curve, poor fit]. With COc1ccc(NC(=O)c2cccc(Oc3ccc([N+](=O)[O-])cc3Cl)c2)cc1 the Potency was inconclusive: 2.82 µM [inhibitor, full curve]. With Cc1c(C(=O)NN2CCOCC2)oc2c1ccc1ccccc12 the Potency was “inactive”. In the case of Cc1ccc(S(=O)(=O)c2nc(-c3ccccc3Cl)oc2N(C)C)cc1, the Potency is reported as “inactive”. With O=C(COc1ccccc1)N1c2ccccc2Sc2ccccc21 the Potency was inconclusive: 17.8 µM [inhibitor, partial curve, poor fit]. In the case of Cc1ccc2c(=O)cc(C(=O)Nc3sc4c(c3C(=O)NCc3ccco3)CCC4)oc2c1C, the Potency is reported as inconclusive: 11.2 µM [activator, partial curve, poor fit]. In the case of CNC(=O)c1cccn(Cc2cccc(C(F)(F)F)c2)c1=O, the Potency is reported as inconclusive: 11.2 µM [inhibitor, single point]. In the case of CCCNC(=O)c1ccccc1NC(=O)COc1ccc(OC)cc1, the Potency is reported as “inactive”. For Cc1ccccc1OCC(=O)Nc1sc2c(c1C#N)CC(C)(C)NC2(C)C, the Potency was inconclusive: 35.5 µM [inhibitor, single point]. For O=C(Nc1ccc(C(=O)O)cc1)Nc1ccc(F)cc1F, the Potency was “inactive”. In the case of CCc1ccc(-n2nc3cc(C)c(NC(=O)c4cc(Cl)ccc4OC)cc3n2)cc1, the Potency is reported as inconclusive: 31.6 µM [activator, single point]. For Cc1cccc2c1nc(-c1ccccc1)n1nnnc21, the Potency was “inactive”. In the case of CCOC(=O)/C(=N/Nc1ccccc1OC)N1CCCc2ccccc21, the Potency is reported as inconclusive: 25.1 µM [inhibitor, single point]. In the case of CCCS(=O)(=O)Nc1c(OC)ccc2c1c(C(=O)OCC)c(C)n2C, the Potency is reported as inconclusive: 0.794 µM [activator, full curve]. With O=C(NCc1ccccc1)C(c1ccc(F)cc1)N(Cc1ccco1)C(=O)c1ccccn1 (stereo not drawn) the Potency was inconclusive: 32.6 µM [inhibitor, single point]. For Cc1ccc(CCNC(=O)CN(C)S(=O)(=O)c2ccc3c(c2)n(C)c(=O)c(=O)n3C)cc1, the Potency was “inactive”. For Cc1ccc2c(c1)c1c(n2C)-c2[nH]ncc2CC1, the Potency was “inactive”. With CCCN1Cc2cccc(C(=O)N3CCN(c4ccc(F)cc4)CC3)c2C1=O the Potency was “inactive”. With CCOC(=O)c1[nH]c2ccccc2c1NC(=O)c1nonc1C the Potency was “inactive”. For Oc1ccc(Br)cc1/C=N/Nc1ncc(-c2ccccc2)cn1, the Potency was “inactive”. With O=S(=O)(NCC(c1ccco1)N1CCN(c2ccc(F)cc2)CC1)c1ccc2c(c1)OCCO2 (stereo not drawn) the Potency was inconclusive: 35.5 µM [inhibitor, single point]. For COc1ccc(/C=N/NC(=O)c2cccc(Br)c2)cc1COc1ccccn1, the Potency was “inactive”. With COc1cc(NS(=O)(=O)c2ccc(NC(=O)CCC(=O)O)cc2)nc(OC)n1 the Potency was “inactive”. With COc1ccccc1N1C(=O)C(=O)N(C)C1=O the Potency was inconclusive: 35.5 µM [inhibitor, single point]. In the case of Cc1cccc(C)c1Nc1nnc(SCc2nc3ccccc3c(=O)[nH]2)s1, the Potency is reported as inconclusive: 0.58 µM [inhibitor, single point]. With COc1ccc(OC)c(/C=C/C(=O)N2CCCc3ccccc32)c1 the Potency was inconclusive: 15.8 µM [inhibitor, single point]. For OC(CNc1ncnc2sccc12)c1ccccc1 (stereo not drawn), the Potency was inconclusive: 10 µM [inhibitor, partial curve, poor fit]. With Cc1cc(NC(=O)c2cc(-c3ccncc3)nc3c(C)cccc23)no1 the Potency was “inactive”. For O=C1C2C3C=CC(CNS(=O)(=O)c4ccccc4[N+](=O)[O-])(O3)C2C(=O)N1c1ccccc1 (stereo not drawn), the Potency was “inactive”. With CCOc1ccc(NC(=O)C2CC(=O)N(c3ccc4c(c3)OCCO4)C2)cc1OCC (stereo not drawn) the Potency was inconclusive: 5.62 µM [activator, single point]. In the case of O=C(NN1C(=O)NC2(CCCCC2)C1=O)c1cc(F)cc(F)c1, the Potency is reported as inconclusive: 5.62 µM [activator, single point]. For COc1ccc(NC(=O)C2CCCN(c3cc(C)nc4ncnn34)C2)cc1 (stereo not drawn), the Potency was inconclusive: 3.98 µM [inhibitor, partial curve]. For COc1cc(OC)cc(C(=O)Nn2c(C)nc3ccccc3c2=O)c1, the Potency was “inactive”. For O=C(NCCCn1ccnc1)/C(=C\c1cccnc1)NC(=O)c1ccco1, the Potency was inconclusive: 2.82 µM [inhibitor, single point]. With O=C(OCc1ccccc1)c1cc(S(=O)(=O)N2CCCCC2)ccc1N1CCOCC1 the Potency was inconclusive: 7.94 µM [inhibitor, partial curve, poor fit]. For CSc1ccccc1OCc1cc(C(=O)N(C)C(C)c2nc(C)cs2)no1 (stereo not drawn), the Potency was inconclusive: 20 µM [inhibitor, single point]. For Cc1ccc(-c2nnc(SCC(N)=O)nc2-c2ccc(C)cc2)cc1, the Potency was inconclusive: 22.4 µM [inhibitor, single point]. For N#Cc1cccc(C(=O)OCC(=O)N2CCCc3ccccc32)c1, the Potency was inconclusive: 35.5 µM [activator, single point]. For CC(OC(=O)c1nc(-c2ccccc2)n(-c2ccccc2)n1)C(=O)Nc1cc(Cl)cc(Cl)c1 (stereo not drawn), the Potency was inconclusive: 5.62 µM [inhibitor, single point]. With S=C(Nc1ccc2c(c1)OCO2)Nc1ccc2c(c1)OCO2 the Potency was “inactive”. For Cc1ccc(NC(=O)CCN2CCN(C/C=C/c3ccccc3)CC2)cc1, the Potency was active: 8.91 µM. For C(#Cc1ccccc1)C[N+]1(CC#Cc2cccc3ccccc23)CCCC1, the Potency was “inactive”.

Reference: PubChem BioAssay AID540276 (National Center for Advancing Translational Sciences (NCATS), 2011)
Potency means the concentration at half of the fitted maximal effect.
